# Where “and” joins values, the source holds several entries; their conditions need not be identical. Equal entries are not always repeated. The list shows a part of the results. Repeats in this data set agree poorly, so a single value says little.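 HEK293T cells were given each compound shortly before transfection with a reporter in which red mCherry is followed by the SARS-CoV-2 frameshift element and then GFP in the −1 frame, so GFP appears only after frameshifting.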
# Key:
# [1] = system: SARS-CoV-2 -1 PRF reporter mCherry-FSE-GFP(-1); assay: mCherry (red) intensity as percent of control; higher = higher upstream reporter expression; conditions: 10 µM; 24 h; HEK293T
# [2] = system: SARS-CoV-2 -1 PRF reporter mCherry-FSE-GFP(-1); assay: percent effect, decrease of GFP/mCherry ratio (-1 PRF reporter) relative to controls; higher = stronger frameshift inhibition; conditions: 10 µM; 24 h; HEK293T
Compound,mCherry [1],percent effect [2]
Cc1c(OCC(F)(F)F)ccnc1C[S+]([O-])c1nc2ccccc2[nH]1 (stereo not given) [lansoprazole],141%,3.76%
Cc1ccc(S(=O)(=O)NCl)cc1 [tosylchloramide sodium],119%,-2.07%
CC(=O)N[C@@H](CC(=O)N[C@@H](CCC(=O)O)C(=O)O)C(=O)O [spaglumic acid],84.7%,-0.222%
O=C(NCC1CCCO1)c1cc(Br)cc(Br)c1O (stereo not given) [fursalan],103%,-7.5%
C1COC(NC(C2CC2)C2CC2)=N1 [Rilmenidine phosphate],94.1%,-1.67%
O=C(CCBr)N1CCN(C(=O)CCBr)CC1 [pipobroman],91.5%,0.506%
Cc1ccc(S(=O)(=O)NC(=O)NC2CCCCC2)cc1 [glycyclamide],102%,-6.75%
COc1c(C)c2c(c(O)c1C/C=C(\C)CCC(=O)OCCN1CCOCC1)C(=O)OC2,187% and 166%,-10.1% and -9.69%
Nc1ccc(S(=O)(=O)Nc2cncc(Cl)n2)cc1 [sulfaclozine],72.8%,-2.54%
Cc1ccc(C(=O)c2cc(O)c(O)c([N+](=O)[O-])c2)cc1 [tolcapone],85.8%,-0.0452%
c1ccc(Cc2nc3ccccc3[nH]2)cc1 [bendazol],110%,-1.6%
O=C(O)CSCC(=O)NC1CCSC1=O (stereo not given) [erdosteine],108%,0.671%
CCc1nn(CCCN2CCN(c3cccc(Cl)c3)CC2)c(=O)n1CCOc1ccccc1,78.7%,-0.989%
NCCCC(N)(C(=O)O)C(F)F (stereo not given) [eflornithine],118% and 94.6%,-4.34% and 0.643%
CC(C)=C/C(C)=N/Nc1nncc2ccccc12 [budralazine],78.6%,1.75%
COc1ccc(C2C(=O)c3ccccc3C2=O)cc1 [anisindione],107%,-13.5%
CO[C@@]1(NC(=O)CSCC#N)C(=O)N2C(C(=O)O)=C(CSc3nnnn3C)CS[C@@H]21 [cefmetazole],90.9%,1.08%
CC(=O)C(=Cc1cc(O)c(O)c([N+](=O)[O-])c1)C(C)=O [nitecapone],80.6%,1.41%
CCC(CC)CC1(C(=O)Nc2ccccc2SC(=O)C(C)C)CCCCC1 [dalcetrapib],115%,-9.17%
CC(C)(CO)[C@@H](O)C(=O)NCCC(=O)NCCSSCCNC(=O)CCNC(=O)[C@H](O)C(C)(C)CO,83.1%,1.39%
C[C@H]1c2cccc(O)c2C(O)=C2C(=O)[C@]3(O)C(O)=C(C(N)=O)C(=O)[C@@H](N(C)C)[C@@H]3[C@@H](O)[C@@H]21 [doxycycline],72%,4.59%
CCC(Cc1c(I)cc(I)c(N)c1I)C(=O)O (stereo not given) [iopanoic acid],134%,0.435%
CC(C)CCCCC(=O)N[C@@H](CCN)C(=O)N[C@@H](CN[C@@H](CCN)C(=O)N[C@H]1CCNC(=O)[C@H]([C@@H](C)O)NC(=O)[C@H](CCN)NC(=O)[C@H](CCN)NC(=O)[C@H](CC(C)C)NC(=O)[C@@H](CC(C)C)NC(=O)[C@H](CCN)NC1=O)[C@@H](C)O.CCC(C)CCCCC(=O)N[C@@H](CCN)C(=O)N[C@@H](CN[C@@H](CCN)C(=O)N[C@H]1CCNC(=O)[C@H]([C@@H](C)O)NC(=O)[C@H](CCN)NC(=O)[C@H](CCN)NC(=O)[C@H](CC(C)C)NC(=O)[C@@H](CC(C)C)NC(=O)[C@H](CCN)NC1=O)[C@@H](C)O (stereo not given in full),96.3%,-3.35%
CC1=C(C/C=C(\C)CCC[C@H](C)CCC[C@H](C)CCCC(C)C)C(=O)c2ccccc2C1=O,83.3%,-0.559%
NCCC[C@H](N)CC(=O)N[C@H]1CNC(=O)[C@H]([C@H]2C[C@H](O)NC(N)=N2)NC(=O)/C(=C/NC(N)=O)NC(=O)[C@H](CO)NC(=O)[C@H](CO)NC1=O,103%,-0.0675%
Cc1onc(-c2ccccc2)c1C(=O)N[C@@H]1C(=O)N2[C@@H]1SC(C)(C)[C@@H]2C(=O)O,133%,0.605%
CCC(C)n1ncn(-c2ccc(N3CCN(c4ccc(OCC5COC(Cn6cncn6)(c6ccc(Cl)cc6Cl)O5)cc4)CC3)cc2)c1=O (stereo not given) [Itraconazole],71.1%,-9.34%
CCCCN(CCCC)CC(O)c1cc(Cl)cc2c1-c1ccc(Cl)cc1/C2=C/c1ccc(Cl)cc1 (stereo not given) [Benflumetol],109%,-2.63%
CCN1CCCC(OC(=O)C(c2ccccc2)c2ccccc2)C1 (stereo not given),106%,-3.73%
CO[C@@H]1[C@@H](O[C@@H]2O[C@H](C)[C@@H](O[C@H]3C[C@@](C)(O)[C@@H](OC(=O)CC(C)C)[C@H](C)O3)[C@H](N(C)C)[C@H]2O)[C@@H](CC=O)C[C@@H](C)[C@@H](O)/C=C/C=C/C[C@@H](C)OC(=O)C[C@H]1OC(C)=O [Josamycin],103%,-1.74%

# A section from further up:
Compound,mCherry [1],percent effect [2]
CCc1nn(CCCN2CCN(c3cccc(Cl)c3)CC2)c(=O)n1CCOc1ccccc1,78.7%,-0.989%
NCCCC(N)(C(=O)O)C(F)F (stereo not given) [eflornithine],118% and 94.6%,-4.34% and 0.643%
CC(C)=C/C(C)=N/Nc1nncc2ccccc12 [budralazine],78.6%,1.75%
COc1ccc(C2C(=O)c3ccccc3C2=O)cc1 [anisindione],107%,-13.5%
CO[C@@]1(NC(=O)CSCC#N)C(=O)N2C(C(=O)O)=C(CSc3nnnn3C)CS[C@@H]21 [cefmetazole],90.9%,1.08%
CC(=O)C(=Cc1cc(O)c(O)c([N+](=O)[O-])c1)C(C)=O [nitecapone],80.6%,1.41%
CCC(CC)CC1(C(=O)Nc2ccccc2SC(=O)C(C)C)CCCCC1 [dalcetrapib],115%,-9.17%
